Paper PMC6262536 (Cells, 2018)
Where “and” joins values, the source holds several entries; their conditions need not be identical. Equal entries are not always repeated.

Key:
[1] = test system: doxorubicin-resistant subline (LoVo/DX); assay type: cell-based, human; conditions: for LoVo/DX RI (Resistance Index): RI = IC50 LoVo/DX / IC50 LoVo; for LoVo/DX SI: SI = IC50 BALB/3T3 / IC50 LoVo/DX
Description: (§1) The BALB/3T3 cell line was purchased from the American Type Culture Collection (ATCC, Manassas, VA, USA), A549 and MCF-7 cell lines—from European Collection of Authenticated Cell Cultures (Salisbury, UK), LoVo cell line was purchased from the ATCC (ATCC, Manassas, VA, USA), and LoVo/DX by courtesy of Prof. E. Borowski (Technical University of Gdańsk, Gdańsk, Poland). All the cell lines are maintained in the Institute of Immunology and Experimental Therapy (IIET), Wroclaw, Poland. […] Human breast adenocarcinoma cell line was cultured in mixture of Eagle medium (IIET, Wroclaw, Poland), supplemented with 10% fetal bovine serum, 2 mM L-glutamine, 8 μg/mL insulin and 1% amino-acids (Sigma-Aldrich, Merck KGaA, Saint Louis, MO, USA). […] Murine embryonic fibroblast cells were cultured in Dulbecco medium (Life Technologies Limited, Paisley, UK), supplemented with 10% fetal bovine serum (GE Healthcare, Logan, UT, USA) and 2 mM glutamine (Sigma-Aldrich, Merck KGaA, Saint Louis, MO, USA). All culture media contained antibiotics: 100 U/mL penicillin and 100 μg/mL streptomycin (Polfa-Tarchomin, Warsaw, Poland). All cell lines were cultured during entire experiment in humid atmosphere at 37 °C and 5% CO2. […] The procedure is repeated every year or in the case of less frequently used lines: after thawing.
(§2) Twenty-four hours before adding the tested compounds, all cell lines were seeded in 96-well plates (Sarstedt, Nümbrecht, Germany) in appropriate media with 10^4 cells per well. All cell lines were exposed to each tested agent at four different concentrations in the range 100–0.01 μg/mL for 72 h. […] Additionally, all cell lines were exposed to DMSO (solvent used for tested compounds) (POCh, Gliwice, Poland) at concentrations corresponding to those present in tested agents’ dilutions. After 72 h sulforhodamine B assay (SRB) was performed.
(§3) After 72 h of incubation with the tested compounds, cells were fixed in situ by gently adding of 50 μL per well of cold 50% trichloroacetic acid TCA (POCh, Gliwice, Poland) and were incubated at 4 °C for one hour. Following, wells were washed four times with water and air dried. Next, 50 μL of 0.1% solution of sulforhodamine B (Sigma-Aldrich, Merck KGaA, Saint Louis, MO, USA) in 1% acetic acid (POCh, Gliwice, Poland) were added to each well and plates were incubated at room temperature for 0.5 h. After incubation time, unbound dye was removed by washing plates four times with 1% acetic acid whereas stain bound to cells was solubilized with 10 mM Tris base (Sigma-Aldrich, Steinheim, Germany). Absorbance of each solution was read at Synergy H4 Hybrid Multi-Mode Microplate Reader (BioTek Instruments, Inc., Winooski, VT, USA) at the 540 nm wavelength.
(§4) Compounds at each concentration were tested in triplicates in single experiment and each experiment was repeated at least three times independently. The Resistance Index (RI) was defined as the ratio of IC50 for a given compound calculated for resistant cell line to that measured for its parental drug sensitive cell line (Table 1).

[2] = test system: human breast adenocarcinoma (MCF-7); assay type: cell-based; conditions: SI = IC50 BALB/3T3 / IC50 MCF-7
Description: as §1, §2, §3, §4

[3] = test system: human colon adenocarcinoma cell line (LoVo); assay type: cell-based; conditions: SI = IC50 BALB/3T3 / IC50 LoVo
Description: as §1, §2, §3, §4

[4] = test system: human lung adenocarcinoma (A549); assay type: cell-based; conditions: SI = IC50 BALB/3T3 / IC50 A549
Description: as §1, §2, §3, §4

| SMILES | LoVo/DX RI (Resistance Index) [1] | LoVo/DX SI [1] | MCF-7 SI [2] | LoVo SI [3] | A549 SI [4] |
| --- | --- | --- | --- | --- | --- |
| N.N.[Cl][Pt][Cl] [Cisplatin, reference compound] | 1.3 | 0.7 | 0.4 | 0.9 | 0.6 |
| COc1c(Cl)c2c(c(OC)c1OC)-c1ccc(OC)c(=O)cc1[C@@H](NC(C)=O)CC2 [Compound 3, 4-chlorocolchicine] | 11.4 | 0.2 | 6.0 | 2.0 | 3.0 |
| COc1c(Cl)c2c(c(OC)c1OC)-c1ccc(SC)c(=O)cc1[C@@H](NC(C)=O)CC2 [Compound 4] | 5.1 | 0.2 | 1.0 | 1.0 | 1.0 |
| COc1c(Br)c2c(c(OC)c1OC)-c1ccc(OC)c(=O)cc1[C@@H](NC(C)=O)CC2 [Compound 5, 4-bromocolchicine] | 18.5 | 0.1 | 5.26 and 5.3 | 1.7 | 1.4 |
| COc1c(Br)c2c(c(OC)c1OC)-c1ccc(SC)c(=O)cc1[C@@H](NC(C)=O)CC2 [Compound 6, 4-bromothiocolchine] | 9.6 | 0.8 | 6.76–11.85 and 6.9 | 5.45–16.43 and 7.4 | 10.08–10.45 and 10.3 |
| COc1c(I)c2c(c(OC)c1OC)-c1ccc(OC)c(=O)cc1[C@@H](NC(C)=O)CC2 [Compound 7, 4-iodocolchicine] | 278.0 | 0.1 | 1.4 | 13.5 | 1.4 |
| COc1c(I)c2c(c(OC)c1OC)-c1ccc(SC)c(=O)cc1[C@@H](NC(C)=O)CC2 [Compound 8, 4-iodothiocolchicine] | 91.7 | 0.2 | 6.76–11.85 and 6.8 |  | 10.08–10.45 and 10.5 |
